Experimental data as given in PubChem BioAssay AID493014 (National Center for Advancing Translational Sciences (NCATS), 2011).
About 170 (0.05%) of roughly 340,000 compounds were called active. Inconclusive results, whose numbers are uncertain, are shown with a selection of clear calls. The call rests on the fitted dose curve; in most records, active means well fitted inhibition curve with a large enough effect in the signal ratio, with a control signal flat (not every such curve was filed as active); inconclusive means small, poorly fitted or top-dose-only effect, or effect the other way, or a change in a side signal; inactive means flat fitted curve, though single readings scatter; the % refers to the signal ratio. Potencies of inconclusive entries are doubtful fits and often do not repeat.

Test: qHTS Assay to Find Inhibitors of Chronic Active B-Cell Receptor Signaling;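 on activity change, negative = inhibition: plate controls were basal doxycycline-induced cells for no effect and cells given 10 µM MG132 for full effect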
Conditions: ABC-DLBCL IkBa-CBG/CBR reporter, luminescence ratio (green luciferase fused to IkBa over red control in TMD8 lymphoma cells), 4 h; activity change, negative = inhibition: at 46.1 µM (top of the series) unless noted
Summary of the method: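 Compounds up to 46 uM were incubated four hours with TMD8 cells whose green CBG68 luciferase is fused to IkappaBalpha; red CBR luminescence normalised the signal, and concentration-effect curves were fitted to fusion, red and ratio data.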
Potency means the concentration at half of the fitted maximal effect.

Compound	activity change, negative = inhibition	Potency
CC(C)N(Cc1cnn(C)c1)Cc1nc(Cc2ccccc2Cl)no1	inconclusive: 1.67%	–
O=C(COc1ccc2c(-c3ccccc3)cc(=O)oc2c1)NCC1CCC(C(=O)O)CC1 (configuration not stated)	inconclusive: 5.75%	–
CCOC(=O)CNS(=O)(=O)c1cc(-c2nn(C)c(=O)c3ccccc23)ccc1C	inconclusive: 9.32%	–
Cc1ccc(S(=O)(=O)N2CCN(C(=O)C(C)Cn3nc(C)c(C)c3C)CC2)cc1C (configuration not stated)	inconclusive: -1.24%	–
COc1ccc(S(=O)(=O)Nc2cccc(-c3ccc4nncn4n3)c2)cc1	–	inconclusive: 18.4 µM [falling, single point]
COc1ccc(C2C(C(=O)c3sc(C)nc3C)=C(O)C(=O)N2CCN(C)C)cc1OC (configuration not stated)	inconclusive: 5.62%	–
Cc1ccc(C2C=C(c3ccccc3OC(F)F)Nc3ncnn32)cc1 (configuration not stated)	inconclusive: 15.6%	–
O=C(Nc1cccc(Cl)c1)NC1CC2CCC(C1)N2Cc1cccs1 (configuration not stated)	inconclusive: 3.37%	–
COc1ccc2nc(/N=C/c3c(C)[nH]n(-c4ccc(C)cc4)c3=O)sc2c1	inactive: -2%	–
O=C1CC(c2ccccc2)=NN1c1nc(-c2ccccc2)cs1	inactive: 3.95%	–
Cc1nc(C)c(/C(O)=C/c2nc3ccccc3oc2=O)s1	–	inconclusive: 5.8 µM [falling, full curve]
N#Cc1nc(-c2ccc(F)cc2)oc1N1CCN(C(=O)c2ccco2)CC1	inactive: 0.239%	–
Cc1ccc(S(=O)(=O)c2c(C)nn(C(C)(C)C)c2OC(=O)c2ccco2)cc1	inconclusive: 3%	–
O=C(CSc1nnnn1C1CCCC1)N1CCN(C(=O)c2ccco2)CC1	inconclusive: 3.08%	–
CCOC(=O)N1CCN(C(=O)COc2cccc3c2CCN(Cc2ccc(F)cc2)C3=O)CC1	–	inconclusive: 23.1 µM [falling, partial curve]
CCCCOC(=O)/C=C\C(=O)NC(N)=O	inconclusive: 14.6%	–
Cc1cc(C)n(-c2ncnc3sc4c(c23)CCCC4)n1	inconclusive: -1.19%	–
CC(C)Cn1c(N)c(C(=O)COC(=O)c2ccncc2)c(=O)n(C)c1=O	inconclusive: -4.33%	–
Cc1ccc(-n2c(CCc3ccccc3)nnc2SCC(=O)NCc2ccccc2)cc1C	inconclusive: 2.95%	–
COc1ccc(-n2ncc3c(=O)n(CC(C)=O)cnc32)cc1	inconclusive: 5.78%	–
COc1ccc(-c2[nH]c(-c3ccc(F)cc3)nc2SCC(=O)NC2CCCC2)cc1	inconclusive: -8.76%	–

Compound	activity change, negative = inhibition	Potency
CN1c2ccccc2Sc2cc(N)ccc21	–	inconclusive: 15.8 µM [falling, single point]
O=c1ccc(-c2ccccc2)nn1Cc1ccc(F)cc1Cl	inactive: -2.16%	–
O=C(Nc1ncc(Cc2ccccc2)s1)C1COc2ccccc2O1 (configuration not stated)	–	inconclusive: 0.355 µM [rising, full curve]
COc1ccccc1N/C(N)=N/c1nc(C)cc(C)n1	inactive: -2.69%	–
CC(=O)Nc1nc(-c2ccccc2)nc(C)c1C(C)=O	inconclusive: 14%	–
COc1ccc(-c2nc(C#N)c(NCC3CCCO3)o2)cc1 (configuration not stated)	inconclusive: 7.3%	–
Cc1cc(NC(=O)c2cc(CC(C)C)on2)no1	inactive: -3.02%	–
CCN=c1sc(C(=O)NCCc2ccccc2)cc(=O)n1CC	–	inconclusive: 35.5 µM [falling, single point]
CCOc1ccccc1NC(=O)Nc1ccc(Cl)cc1	inconclusive: -22.6%	–
O=C(COc1cccc(Cl)c1)N/N=C\c1cc2ccccc2nc1Cl	inconclusive: 1.36%	–
Cc1cccc(-n2ncc3c(N4CCCC(C)C4)ncnc32)c1 (configuration not stated)	inconclusive: 4.09%	–
COc1ccc(CCC(=O)NCCS(=O)(=O)N2CCN(c3ccccc3OC)CC2)cc1	inactive: 1.17%	–
O=C(NNC(=O)C1CC2CCC1C2)c1sc2ccccc2c1Cl (configuration not stated)	inconclusive: -6.97%	–
COCC(=O)N(Cc1cc2cc(OC)ccc2[nH]c1=O)c1ccccc1OC	inactive: -5.52%	–
Cc1nn(C)c(C)c1CN(Cc1nc(-c2ccc(F)cc2F)oc1C)C1CC1	inactive: 8.37%	–
NC(=O)COc1ccc(Nc2nnc(-c3ccc(O)cc3)c3ccccc23)cc1	–	inconclusive: 15.8 µM [falling, single point]
Cc1ccc(S(=O)(=O)Nc2ccccc2C=Nc2cccc(C)c2C)cc1	inactive: 4.69%	–
Cn1c(=N)n(CC(=O)c2ccccc2)c2ccccc21	–	inconclusive: 22.4 µM [falling, partial curve]
Cc1nn(CC(=O)Nc2ccc(F)cc2)c(=O)c2ccccc12	inconclusive: -11.2%	–
Cn1nc(C(=O)Nc2nc3ccccc3[nH]2)ccc1=O	–	inconclusive: 25.1 µM [falling, single point]
Cc1cc2cc(C(c3nnnn3CC3CCCO3)N3CCCc4ccccc43)c(=O)[nH]c2cc1C (configuration not stated)	inactive: 19.9%	–

Compound	activity change, negative = inhibition	Potency
Cc1ccc(S(=O)(=O)C(CNC(=O)C(=O)NCc2ccccc2C)c2cccs2)cc1 (configuration not stated)	inactive: 5.61%	–
CSc1nc(C)cc(SC(C(C)=O)C(=O)Nc2ccccc2)n1 (configuration not stated)	–	inconclusive: 35.5 µM [falling, single point]
CCOC(=O)C(NC(=O)c1ccc(Cl)cc1Cl)(Nc1ccc(C)cc1)C(F)(F)F (configuration not stated)	–	inconclusive: 10 µM [falling, partial curve]
O=C(NCC(c1ccco1)N1CCCC1)c1cn(-c2ccccc2)nc1-c1ccc(F)cc1 (configuration not stated)	inactive: 22%	–
COc1ccc(OC)c(C2=NOC(C(=O)NCc3ccco3)C2)c1 (configuration not stated)	–	inconclusive: 16.4 µM [falling, partial curve, poor fit]
CCCOc1nc2c(c(=O)n(C)c(=O)n2C)n1CCC	inconclusive: 8.47%	–
Cc1ccc(NC(=O)CN(C)CC(=O)Nc2ccccc2-c2ccccc2)cc1	inconclusive: -8.23%	–
CN1CCCC(CN2c3ccccc3Sc3ccccc32)C1 (configuration not stated)	inconclusive: -25.4%	–
O=C(Cn1cc(C(F)(F)F)ccc1=O)N/N=C/c1ccccc1	inconclusive: 4.83%	–
Cc1cccc(-n2nc3c(c2NC(=O)CCCl)CSC3)c1	inconclusive: 0.118%	–
CCCN1C(=O)c2cc(C(=O)NCCc3cccc(C)c3)ccc2C1O (configuration not stated)	inconclusive: 2.01%	–
COc1ccc(-n2c(-c3ccc(Cl)cc3Cl)n[nH]c2=S)c(OC)c1	inactive: -2.52%	–
O=C(NN=C1CCCC1)c1ccccc1OCc1ccc(Cl)cc1	–	inconclusive: 25.1 µM [falling, single point]
O=C(Nc1ccc(Br)cc1)c1ccc(F)c(S(=O)(=O)N2CCc3ccccc32)c1	inconclusive: 5.44%	–
CCOC(=O)CSc1nc2sc3c(c2c(=O)n1-c1ccc(OCC)cc1)CCN(C)C3	inconclusive: 1.17%	–
CCN(Cc1ccccc1)C(=O)C1CCN(Cc2ccc(SC)cc2)CC1	–	inconclusive: 14.1 µM [falling, single point]
O=c1c2cnn(-c3ccccc3)c2ncn1Cc1ccccc1F	inconclusive: 12.1%	–
CCNc1ccc(C(=O)OCC(=O)NC(C)c2ccccc2)cc1[N+](=O)[O-] (configuration not stated)	inconclusive: 2.18%	–
COCCOc1ccc(C(F)(F)F)cc1NC(=O)COC(=O)Cc1c[nH]c2ccccc12	–	inconclusive: 20.6 µM [falling, single point]
CCOc1ccccc1NC(=O)N1CCC(NC(=O)c2cccc(C)c2)CC1	inconclusive: -12.7%	–
Cc1nc(C(=O)NNC(=O)c2ccc(Cl)cc2)cs1	–	inconclusive: 31.6 µM [falling, single point]

Compound	activity change, negative = inhibition	Potency
COc1ccccc1CN1Cc2cccc3c2[C@@H](CC1=O)[C@H](O)[C@H](O)C3	inconclusive: 1.41%	–
O=C(/C(=C/O)N=Nc1ccccc1)c1cccs1	inconclusive: -22.5%	–
Cc1ccc(CN2CCN(C3CCN(C(=O)Nc4ccc(C)cc4Cl)CC3)C(=O)C2=O)cc1	inactive: 1.3%	–
CCOC(=O)N1CCN(C(=O)c2cnc(Nc3ccccc3OC)c3ccccc23)CC1	inactive: -0.448%	–
Cn1cccc1C(=O)C(=O)Nc1ccc(Cl)cc1	–	inconclusive: 35.5 µM [rising, single point]
CCNc1nc2c(c(=O)n(Cc3ccccc3)c(=O)n2C)n1Cc1ccccc1	inconclusive: 19.3%	–
CCOC(=O)c1ccc(NC(=O)CCS(=O)(=O)c2ccc(Br)s2)cc1	inactive: 20.6%	–
CCOC(=O)/C(C#N)=C1\SS/C(=C(/C#N)C(=O)OCC)S1	inconclusive: 9.55%	–
O=C(O)CCCCCN1C(=O)/C(=C\c2ccc(-c3ccc(Cl)cc3)o2)SC1=S	–	inconclusive: 0.112 µM [falling, full curve, poor fit]
O=C(O)c1ccc(Nc2cc(Cl)c3nonc3c2[N+](=O)[O-])cc1	–	inconclusive: 35.5 µM [falling, single point]
Cn1c(=O)[nH]c(=O)c2c1nc(SCC(=O)Nc1ccccc1)n2Cc1ccccc1	inconclusive: -14.1%	–
O=C(Nc1cccc2ccccc12)NC(Cc1ccccc1)C(=O)O (configuration not stated)	inactive: 0.708%	–
COc1ccccc1N=Cc1c(O)c2ccccc2oc1=O	–	inconclusive: 4.61 µM [falling, full curve]
O=C(COc1ccccc1[N+](=O)[O-])N/N=C/C=C/c1ccco1	–	inconclusive: 17.8 µM [falling, single point]
N#Cc1ccc(OCc2noc(-c3ccsc3)n2)cc1	inconclusive: 9.34%	–
COc1ccc(-n2nc(C(=O)NCC(=O)N3CCC(C)CC3)c3ccccc3c2=O)cc1Cl	inconclusive: 23.6%	–
Cc1nc(Nc2ccccc2F)c2oc3ccccc3c2n1	–	inconclusive: 5.01 µM [falling, full curve]
COc1ccccc1C1C([N+](=O)[O-])=CC([N+](=O)[O-])=CN1C (configuration not stated)	inconclusive: -14.2%	–
S=c1[nH]nc(-c2ccco2)n1-c1ccccc1Cl	inconclusive: -13.3%	–
